This note sets out measurements from PubChem BioAssay AID2685 (National Center for Advancing Translational Sciences (NCATS), 2010).

This assay in a line: qHTS Assay for Lipid Storage Modulators in Drosophila S3 Cells.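 On cell number change: cells counted by Cell Tracker Red CMTPX staining in the red channel.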 As to conditions: BODIPY lipid droplet fluorescence, 18-24 h; for cell number change: measured here: cell count max response, cells fed with added oleic acid. In outline: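 Drosophila S3 cells loaded with oleic acid (400 uM, as added) and compounds at several concentrations; lipid droplets imaged by 488-nm laser-scanning cytometry, 500–530 nm intensity and object ratio to cell channel. Percent activity normalized to 20 uM Triacsin C.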
(In general: In qHTS, concentration-response curves come from the screen itself.)

Setting [1] is: measured here: lipid fluorescence (Fed channel) AC50, cells fed with added oleic acid.
The mark [2] stands for this setting: measured here: cell number channel AC50, cells fed with added oleic acid.

This is one part of the list. Further columns of the screen follow, without active or inactive calls. Most of these compounds were active or inconclusive in the main read-out, so they are no random draw. Words in brackets tell the shape of the fitted curve; partial curves, single points and poor fits give uncertain potencies.

The term AC50 denotes the midpoint of the concentration-response curve, whichever way the signal moves. Read a low AC50 as activity at low concentration. Take `O=S(=O)(c1ccc(Oc2ncnc3scc(-c4ccccc4)c23)cc1)N1CCOCC1`: the cell number change is -26.4%. For the same compound, the AC50 under setting [1] was 2.06 µM [rising, partial curve].

Consider `O=C(CCC(=O)N(CC(=O)NC1CCCCC1)c1ccccc1F)Nc1nccs1`, for which the cell number change amounted to 154%. Moreover, the AC50 under setting [2] is 29.1 µM [rising, single point]. Besides, the AC50 under setting [1] is 29.1 µM [rising, single point].

In the case of `CSc1cccc(NC(=O)C2C3C=CC4(O3)C2C(=O)N(CCCN2CCOCC2)C4C(=O)NC2CCCCC2)c1` (configuration not stated), the cell number change was 18.5%. Further, under setting [1], the AC50 was 29.1 µM [falling, partial curve, poor fit].

On to `CCCN(CCC)S(=O)(=O)c1ccc(C(=O)N2CC3CCC(CC3)C2)cc1`, for which the cell number change was -52.4%. Besides, the AC50 under setting [2] is 5.17 µM [falling, full curve]. Besides, under setting [1], the AC50 was 29.1 µM [falling, single point].

Regarding `Cc1ccc(-c2nc3ccccc3o2)cc1NC(=S)NC(=O)/C=C/c1ccco1`, the cell number change is -28.7%. The AC50 under setting [1] is 32.6 µM [falling, single point].

In the case of `CCn1ncc(Cl)c1C(=O)NC(=S)Nc1c(C)cc(C)cc1[N+](=O)[O-]`, the cell number change worked out at 47.7%. Moreover, the AC50 under setting [2] was 2.31 µM [rising, partial curve]. The AC50 under setting [1] was 4.11 µM [rising, partial curve].

As to `O=C(NCc1ccc(F)cc1)c1ccccc1OCc1ccccc1`, the cell number change is 61.3%. Further, the AC50 under setting [2] was 10.3 µM [rising, partial curve]. Under setting [1], the AC50 was 9.2 µM [rising, partial curve].

Consider `Cn1c(=O)c(S(=O)(=O)C(C)(C)C)c(O)c2ccccc21`, for which the cell number change is -59.1%. Also, the half-maximal activity concentration (AC50) under setting [2] was 29.1 µM [falling, single point]. For the same compound, under setting [1], the AC50 is 29.1 µM [falling, single point].

As for `CC(C)(C)c1ccc(NC(=O)CNC2CCCc3ccccc32)cc1` (configuration not stated), the cell number change is -73%. Further, under setting [2], the AC50 was 1.46 µM [falling, partial curve]. Also, the AC50 under setting [1] was 0.231 µM [falling, full curve, poor fit].

For `CCOC(=O)c1cc(NC(=O)c2cnccn2)cc(C(=O)OCC)c1`, the cell number change was determined as 1.76%. Moreover, the half-maximal activity concentration (AC50) under setting [1] was 29.1 µM [rising, single point].

As for `CC(OC(=O)CNC(=O)c1cccs1)C(=O)Nc1ccc(S(N)(=O)=O)cc1` (configuration not stated), the cell number change was -12.4%. Further, under setting [2], the AC50 was 6.51 µM [falling, single point]. Moreover, under setting [1], the AC50 is 8.2 µM [rising, partial curve].

Take `COc1ccccc1C(=O)N(Cc1ccco1)C1CCS(=O)(=O)C1` (configuration not stated): the cell number change came to 0.144%. Under setting [1], the AC50 was 29.1 µM [falling, single point].

Regarding `COc1ccccc1NC(=O)NCCN1CCN(c2cccc(Cl)c2)CC1`, the cell number change was determined as 25%. In addition, the AC50 under setting [2] was 6.51 µM [rising, single point]. The AC50 under setting [1] was 10.3 µM [falling, partial curve].

For `COC(=O)c1ccc(N2C(=O)C3CC(C)=C(C)CC3C2=O)cc1` (configuration not stated), the cell number change is -8.31%. The AC50 under setting [2] is 3.26 µM [rising, single point]. In addition, under setting [1], the AC50 was 0.461 µM [rising, partial curve, poor fit].

For the compound `Brc1ccc(-c2cn3nc4c(nc3n2)CCCC4)cc1`, the cell number change was 38.1%. Further, the AC50 under setting [2] is 8.2 µM [rising, partial curve, poor fit].

For the compound `COC(=O)C(Cc1ccccc1)NC(=O)CNC(=O)c1ccc(Br)o1` (configuration not stated), the cell number change came out at 4.13%.

Consider `O=C(O)/C=C/C(=O)Nc1ccc(-n2nccc2C(F)(F)F)cc1`, for which the cell number change amounted to 28.6%.

With `COc1ccc(-c2cn(-c3ccc(C)cc3C)c(=S)[nH]2)cc1OC`, the cell number change is -68.2%. For the same compound, the AC50 under setting [2] is 23.1 µM [falling, single point]. Also, the AC50 under setting [1] is 23.1 µM [falling, partial curve, poor fit].

With `S=C(Nc1cccc(Cl)c1Cl)N1CCCC1`, the cell number change is 0.578%. The AC50 under setting [1] was 29.1 µM [falling, single point].

As for `CCCCCc1c2c(cc(O)c1C(=O)O)OC(=O)c1c(cc(OC)cc1C(=O)CCCC)O2`, the cell number change is -26.2%. Moreover, the AC50 under setting [1] is 29.1 µM [falling, single point].

For `Cc1c[nH]c(=O)c([N+](=O)[O-])c1`, the cell number change worked out at 20%.

Consider `Cc1ccc(OCC(=O)N(Cc2ccc(C)o2)C2CCS(=O)(=O)C2)cc1` (configuration not stated), for which the cell number change was found to be 11.9%.

Consider `Cc1c(C(=O)NCc2c(F)cc(F)cc2F)oc2ccc(S(=O)(=O)N3CCOCC3)cc12`, for which the AC50 under setting [1] was 0.013 µM [falling, full curve, poor fit].

As to `COc1ccc(COC(=O)C2=C(C)NC(=O)NC2c2ccc(O)c(OC)c2)cc1` (configuration not stated), the cell number change turned out to be 5.44%. In addition, the AC50 under setting [1] was 16.4 µM [rising, single point].

In the case of `Cc1sc2ncnc(OCC(=O)NC(C)C(C)C)c2c1C` (configuration not stated), the cell number change came to 6.95%. Besides, the AC50 under setting [1] was 0.651 µM [rising, partial curve, poor fit].

On to `Cc1ccc(CNS(=O)(=O)c2cc3c(cc2C)NC(=O)CO3)cc1`, for which, under setting [1], the AC50 was 4.61 µM [rising, partial curve].

Consider `O=C1CCCC/C1=C\Nc1ccc(C(=O)O)c(O)c1`, for which the cell number change was 14.1%. The AC50 under setting [1] was 6.51 µM [falling, single point].

Consider `O=C(NCCN1CCOCC1)c1ccc(Cl)c(S(=O)(=O)N2CCCCC2)c1`, for which the cell number change was determined as 0.495%. Further, the AC50 under setting [2] is 0.259 µM [rising, partial curve, poor fit]. Besides, the AC50 under setting [1] was 14.6 µM [rising, partial curve].

As for `CC1CCN(CC(=O)NCc2ccccc2)CC1`, the cell number change was -182%. Under setting [2], the AC50 was 29.1 µM [falling, single point].

Regarding `CC(C)(C)n1nc2c(c1NC(=O)c1cccc(C(F)(F)F)c1)CS(=O)C2` (configuration not stated), the cell number change is -0.952%. In addition, the AC50 under setting [1] is 0.00461 µM [falling, full curve, poor fit].

Consider `Cc1ccccc1NC(=O)COC(=O)CCc1c[nH]c2ccccc12`, for which the cell number change was -6.16%. Under setting [1], the AC50 was 0.291 µM [rising, full curve, poor fit].

Turning to `Cc1cccc(OCc2nnc(SCC(=O)Nc3cccc(C(=O)N4CCOCC4)c3)n2C)c1C`, the cell number change is -25%. Under setting [1], the AC50 was 18.4 µM [falling, partial curve].

Turning to `CC(Oc1ccc(Br)cc1Cl)C(=O)Nc1ccncc1` (configuration not stated), the cell number change was -39.3%. The AC50 under setting [2] was 11.6 µM [falling, partial curve]. In addition, the AC50 under setting [1] is 8.2 µM [falling, partial curve].

For the compound `CCOc1ccc(C(=O)Nc2cccc(C(=O)O)c2)cc1Cl`, the cell number change is -26.6%. Further, the AC50 under setting [2] is 0.00461 µM [falling, full curve, poor fit]. Moreover, the AC50 under setting [1] was 8.2 µM [falling, partial curve].

For `CCOC(=O)C1CCCN(C(=O)Cn2nc(CC)n3c(cc4sccc43)c2=O)C1` (configuration not stated), the cell number change is 23.3%. Under setting [1], the AC50 was 0.461 µM [rising, full curve, poor fit].

In the case of `COc1cc(C2Nc3ccc4ccccc4c3C3=C2C(=O)CC(C)(C)C3)ccc1OCC(=O)O` (configuration not stated), the cell number change is 2.55%.

With `COc1ccccc1OCCn1c(=O)sc2ccccc21`, the cell number change was determined as 161%. Moreover, the AC50 under setting [2] is 16.4 µM [rising, partial curve]. In addition, the AC50 under setting [1] was 20.6 µM [rising, partial curve].

As to `Cc1nn(CC(=O)NCc2ccccc2Cl)c(C)c1[N+](=O)[O-]`, the cell number change is -64.9%. Besides, the AC50 under setting [2] is 5.17 µM [falling, full curve, poor fit].

In the case of `COc1ccc2c(c1)C(c1ccc(N3CCOCC3)cc1)=NNC(c1cccnc1)=N2`, the cell number change came to 39%. In addition, the AC50 under setting [2] is 9.2 µM [rising, partial curve]. Moreover, the AC50 under setting [1] is 8.2 µM [rising, partial curve, poor fit].

Regarding `NCCCC[C@@H](C(=O)NCCCCCCCCCCC(=O)N1CCNCC1)n1cc(CCCC(=O)O)nn1`, the cell number change was -4.92%. Further, the AC50 under setting [1] was 6.51 µM [rising, partial curve, poor fit].

In the case of `CCOC(=O)C1CCCN(S(=O)(=O)Cc2ccccc2)C1` (configuration not stated), the cell number change worked out at 18%. For the same compound, the AC50 under setting [1] is 29.1 µM [rising, single point].

As for `C[C@@]12C(=O)N(Cc3ccccc3)CC(=O)N1[C@H]1c3cc(Cl)ccc3OC[C@@H]1[C@@H]2c1ccccc1`, the cell number change is -9.03%. The concentration at half-maximal activity (AC50) under setting [1] was 0.82 µM [rising, full curve].

On to `Cc1ccc(S(=O)(=O)NC2CCCC2)cc1C`, for which the cell number change is 67.5%. Moreover, under setting [2], the AC50 was 8.2 µM [rising, partial curve].

`Cc1nc2ccccc2c(=O)n1NC(=O)c1ccc(Cl)cc1`: the cell number change was -33.3%. In addition, under setting [2], the AC50 is 11.6 µM [falling, single point].

Take `CCCS(=O)(=O)N1CCN(CCN2C(=O)c3cccc4cccc(c34)C2=O)CC1`: the cell number change was determined as 19.5%.

As for `O=C(CN1CCN(CN2C(=O)NC3(CCCCCC3)C2=O)CC1)Nc1cccc(F)c1`, the cell number change is -2.57%.

`Cc1ccc(NC(=O)CN2C(=O)NC(Cc3c[nH]c4ccccc34)C2=O)cc1S(=O)(=O)N1CCCCC1` (configuration not stated): the cell number change worked out at 12.7%. Moreover, the concentration at half-maximal activity (AC50) under setting [1] was 13 µM [rising, partial curve].

In the case of `CC(=O)c1cc2c(cc1NC(=O)CN1CCCCCCC1)OCO2`, the concentration at half-maximal activity (AC50) under setting [1] was 0.517 µM [rising, single point].

`Cc1cncn1CCc1nc2c3ccccc3nc(SCC(=O)Nc3cccc(Cl)c3)n2n1`: the cell number change was -81.2%. Further, under setting [2], the AC50 was 23.1 µM [falling, single point]. For the same compound, under setting [1], the AC50 is 16.4 µM [falling, single point].

For `Cc1ccc(C)c(N2CCN(C(=O)c3csc(C)c3C)CC2)c1`, the cell number change was -56.5%. Further, the concentration at half-maximal activity (AC50) under setting [2] was 23.1 µM [falling, partial curve, poor fit]. Further, the AC50 under setting [1] was 2.31 µM [rising, single point].

For `CC(=O)SC(C)CC(=O)Nc1ccccc1` (configuration not stated), the cell number change is -32.9%. Further, under setting [2], the AC50 is 29.1 µM [falling, single point]. Besides, under setting [1], the AC50 was 0.00517 µM [falling, full curve, poor fit].

As for `COc1ccc(-c2noc(CCC(=O)NCCCN3CCC(C)CC3)n2)cc1`, the cell number change was -20.5%. The half-maximal activity concentration (AC50) under setting [1] is 29.1 µM [falling, single point].

For `O=C1C(O)CC2c3ccccc3CC3(CCCC3)N12` (configuration not stated), the cell number change was -11.9%.

As for `COc1c(Cl)ccc(Cl)c1C(=O)OCC(=O)O`, the cell number change was -3.48%. Further, the AC50 under setting [1] was 6.51 µM [rising, single point].

In the case of `CCCCN(CC)CCNC(=O)Cn1cc2c(n1)-c1c(oc(C(=O)N3CCCC3)c1C)CC2`, the cell number change was determined as 39.2%. Further, the AC50 under setting [2] was 8.2 µM [rising, partial curve, poor fit].
